Data: publication PMC9135631 (2022)
These are yes or no findings as the source states them, for the method shown. Binding can be weak; no strength is given.

How the values were obtained:
Assay in all cases: cell aggregation assay; two HEK293 populations (receptor + EGFP; ligand + DsRed) mixed under gentle agitation at room temperature in DMEM, 10% FBS, 50 mM Hepes-NaOH pH 7.4, 10 mM CaCl2, 10 mM MgCl2; aggregates imaged by epifluorescence up to 180 min; aggregation index
[1] = target: Latrophilin-3 ADHD-related variant D615N (Lphn3^D615N) (human)
[2] = target: Latrophilin-3 ADHD-related variant A247S (Lphn3^A247S) (human)
[3] = target: Latrophilin-3 wild type (Lphn3^HA,Flag) (human)
[4] = target: Latrophilin-3 ADHD-related variant R465S (Lphn3^R465S) (human)
[5] = target: Latrophilin-3 ADHD-related variant T783M (Lphn3^T783M) (human)

Measured: binding

B1: FLRT3, transmembrane version (ligand, UniProt Q9NZU0 29-649)
chain: KSCPSVCRCDAGFIYCNDRFLTSIPTGIPEDATTLYLQNNQINNAGIPSDLKNLLKVERIYLYHNSLDEFPTNLPKYVKELHLQENNIRTITYDSLSKIPYLEELHLDDNSVSAVSIEEGAFRDSNYLRLLFLSRNHLSTIPWGLPRTIEELRLDDNRISTISSPSLQGLTSLKRLVLDGNLLNNHGLGDKVFFNLVNLTELSLVRNSLTAAPVNLPGTNLRKLYLQDNHINRVPPNAFSYLRQLYRLDMSNNNLSNLPQGIFDDLDNITQLILRNNPWYCGCKMKWVRDWLQSLPVKVNVRGLMCQAPEKVRGMAIKDLNAELFDCKDSGIVSTIQITTAIPNTVYPAQGQWPAPVTKQPDIKNPKLTKDHQTTGSPSRKTITITVKSVTSDTIHISWKLALPMTALRLSWLKLGHSPAFGSITETIVTGERSEYLVTALEPDSPYKVCMVPMETSNLYLFDETPVCIETETAPLRMYNPTTTLNREQEKEPYKNPNLPLAAIIGGAVALVTIALLALVCWYVHRNGSLFSRNCAYSKGRRRKDDYAEAGTKKDNSILEIRETSFQMLPISNEPISKEEFVIHTIFPPNGMNLYKNNHSESSSNRSYRDSGIPDSDHSHS
binds: all assays above
